Assay results published in patent US8153759B2 (National University Corporation Gunma University, priority 2006, dated 2012).

Experiment: general procedure: solution-phase peptide synthesis; EDC.HCl/HOBt (also DCC/HOBt)
[1] = late stage modification step, HCl salt
[2] = coupling step, TFA salt or hydrochloride salt after Boc removal
[3] = late stage modification step, TFA salt or hydrochloride salt after Boc removal

Substance: HCl.H-Gly-Ile-Gly-Lac-Pro-OSu
- step yield [1]: 94.5%

Substance: Boc-(Ala-Ile-Gly-Lac-Pro)4-OBzl
- step yield [2]: 57.5%

Substance: HCl.H-Val-Gly-Lac-Pro-OBzl
- step yield [1]: 92%

Substance: Boc-Gly-Ile-Gly-Lac-Pro-OH
- step yield [3]: 87.0%

Substance: Boc-Gly-Val-Gly-Lac-Pro-OBzl
- step yield [2]: 86%

Substance: Boc-Val-Gly-Lac-Pro-OBzl
- step yield [2]: 99%

Substance: Boc-Gly-Val-Gly-Lac-Pro-OH
- step yield [3]: 73%

Substance: Boc-Gly-Ile-Gly-Lac-Pro-OSu
- step yield [3]: −100%

Substance: Boc-Gly-Ile-Gly-Lac-Pro-OBzl
- step yield [2]: 83.9%

Substance: HCl.H-(Ala-Ile-Gly-Lac-Pro)2-OBzl
- step yield [1]: 91.1%

Substance: Boc-Ala-Ile-Gly-Lac-Pro-OBzl
- step yield [2]: 58.1%

Substance: Boc-(Ala-Ile-Gly-Lac-Pro)3-OBzl
- step yield [2]: 62.8%

Substance: Boc-Ile-Gly-Lac-Pro-OBzl
- step yield [2]: ˜100%

Substance: Boc-Ala-Ile-Gly-Lac-Pro-OSu
- step yield [3]: 96.5%

Substance: HCl.H-Ala-Ile-Gly-Lac-Pro-OSu
- step yield [1]: ˜100%

Substance: Boc-Ala-Ile-Gly-Lac-Pro-OH
- step yield [3]: 77.2%

Substance: Boc-Gly-Val-Gly-Lac-Pro-OSu
- step yield [3]: 85%

Substance: Boc-(Ala-Ile-Gly-Lac-Pro)2-OBzl
- step yield [2]: 77.20%

Substance: HCl.H-(Ala-Ile-Gly-Lac-Pro)3-OBzl
- step yield [1]: ˜100%
